Measurements published in paper PMC5009372.
These are yes or no findings as the source states them, for the method shown. For part of these data: Binding seen in cells or lysates may run through a third protein. Some results given as binding are weak or reduced against the parent protein; the word gives no strength.

T1: YL1 (YELLOW LEAF 1), full-length, in pGBKT7 (rice (Oryza sativa)) (UniProt Q0E3V2)
T1 sequence: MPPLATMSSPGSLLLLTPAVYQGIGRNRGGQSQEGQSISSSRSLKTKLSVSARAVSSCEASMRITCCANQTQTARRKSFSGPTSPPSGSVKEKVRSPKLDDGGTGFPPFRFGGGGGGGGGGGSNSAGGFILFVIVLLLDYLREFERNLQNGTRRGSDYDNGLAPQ

T2: YL1, full-length, in pSCYNE (BiFC) (rice (Oryza sativa)) (UniProt Q0E3V2)
T2 sequence: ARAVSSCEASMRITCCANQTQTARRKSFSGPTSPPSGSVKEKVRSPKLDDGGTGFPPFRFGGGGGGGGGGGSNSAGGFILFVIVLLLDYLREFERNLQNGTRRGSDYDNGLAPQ

T3: YL1-C (CDS 286-495), in pSCYNE (BiFC) (rice (Oryza sativa)) (UniProt Q0E3V2)
T3 sequence: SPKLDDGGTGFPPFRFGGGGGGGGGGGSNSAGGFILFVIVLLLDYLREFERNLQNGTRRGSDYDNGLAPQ


How the values were obtained:
[1] = target: T1, YL1 (YELLOW LEAF 1), full-length, in pGBKT7 (rice (Oryza sativa)); assay: two-hybrid; Matchmaker Gold system (Clontech); YL1 in pGBKT7 (bait), subunits in pGADT7 (prey); S. cerevisiae AH109; growth on SD/-Ade/-His/-Leu/-Trp medium containing X-α-gal
[2] = target: T2, YL1, full-length, in pSCYNE (BiFC) (rice (Oryza sativa)); assay: split reporter; BiFC with split CFP; YL1 constructs in pSCYNE, AtpB in pSCYCE(R); cotransformed into rice protoplasts; confocal microscopy
[3] = target: T3, YL1-C (CDS 286-495), in pSCYNE (BiFC) (rice (Oryza sativa)); assay: as above

| Binder | binding [1] | binding [2] | binding [3] |
| --- | --- | --- | --- |
| AtpB (β subunit of chloroplast ATP synthase), in pGADT7 (protein, UniProt P12085 1-498) MRTNPTTSRPGVSTIEEKSTGRIDQIIGPVLDVTFPPGKLPYIYNALVVKSRDTDGKQINVTCEVQQLLGNNRVRAVAMSATDGLMRGMEVIDTGAPLSVPVGGATLGRIFNVLGEPVDNLGPVDTSATFPIHRSAPAFIELDTKLSIFETGIKVVDLLAPYRRGGKIGLFGGAGVGKTVLIMELINNIAKAHGGVSVFGGVGERTREGNDLYMEMKESGVINEKNLEESKVALVYGQMNEPPGARMRVGLTALTMAEYFRDVNKQDVLLFIDNIFRFVQAGSEVSALLGRMPSAVGYQPTLSTEMGSLQERITSTKKGSITSIQAVYVPADDLTDPAPATTFAHLDATTVLSRGLASKGIYPAVDPLDSTSTMLQPRIVGNEHYETAQRVKQTLQRYKELQDIIAILGLDELSEEDRLTVARARKIERFLSQPFFVAEVFTGSPGKYVGLAETIRGFQLILSGELDGLPEQAFYLVGNIDEASTKAINLEEENKLKK | binds | – | – |
| AtpB, in pSCYCE(R) (BiFC) (protein, UniProt P12085 1-498) MRTNPTTSRPGVSTIEEKSTGRIDQIIGPVLDVTFPPGKLPYIYNALVVKSRDTDGKQINVTCEVQQLLGNNRVRAVAMSATDGLMRGMEVIDTGAPLSVPVGGATLGRIFNVLGEPVDNLGPVDTSATFPIHRSAPAFIELDTKLSIFETGIKVVDLLAPYRRGGKIGLFGGAGVGKTVLIMELINNIAKAHGGVSVFGGVGERTREGNDLYMEMKESGVINEKNLEESKVALVYGQMNEPPGARMRVGLTALTMAEYFRDVNKQDVLLFIDNIFRFVQAGSEVSALLGRMPSAVGYQPTLSTEMGSLQERITSTKKGSITSIQAVYVPADDLTDPAPATTFAHLDATTVLSRGLASKGIYPAVDPLDSTSTMLQPRIVGNEHYETAQRVKQTLQRYKELQDIIAILGLDELSEEDRLTVARARKIERFLSQPFFVAEVFTGSPGKYVGLAETIRGFQLILSGELDGLPEQAFYLVGNIDEASTKAINLEEENKLKK | – | binds | no binding |
